Data published in publication PMC8534458.
These are yes or no findings as the source states them, for the method shown. Binding seen in cells or lysates may run through a third protein. Some entries that bind do so weakly or less than the wild type.

The chains behind the UniProt entries cited, without tags or fusion partners. Residues count along the entry.
UniProt Q8BWG9: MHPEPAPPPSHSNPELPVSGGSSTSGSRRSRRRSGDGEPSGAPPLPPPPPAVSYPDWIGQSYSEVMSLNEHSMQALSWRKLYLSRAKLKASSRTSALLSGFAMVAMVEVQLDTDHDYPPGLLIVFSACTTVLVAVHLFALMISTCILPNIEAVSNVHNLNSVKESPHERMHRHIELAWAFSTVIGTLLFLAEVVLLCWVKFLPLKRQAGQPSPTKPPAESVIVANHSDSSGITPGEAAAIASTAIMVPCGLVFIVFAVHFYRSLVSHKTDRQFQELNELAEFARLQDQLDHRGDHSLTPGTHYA
UniProt P70302, residues 23-685: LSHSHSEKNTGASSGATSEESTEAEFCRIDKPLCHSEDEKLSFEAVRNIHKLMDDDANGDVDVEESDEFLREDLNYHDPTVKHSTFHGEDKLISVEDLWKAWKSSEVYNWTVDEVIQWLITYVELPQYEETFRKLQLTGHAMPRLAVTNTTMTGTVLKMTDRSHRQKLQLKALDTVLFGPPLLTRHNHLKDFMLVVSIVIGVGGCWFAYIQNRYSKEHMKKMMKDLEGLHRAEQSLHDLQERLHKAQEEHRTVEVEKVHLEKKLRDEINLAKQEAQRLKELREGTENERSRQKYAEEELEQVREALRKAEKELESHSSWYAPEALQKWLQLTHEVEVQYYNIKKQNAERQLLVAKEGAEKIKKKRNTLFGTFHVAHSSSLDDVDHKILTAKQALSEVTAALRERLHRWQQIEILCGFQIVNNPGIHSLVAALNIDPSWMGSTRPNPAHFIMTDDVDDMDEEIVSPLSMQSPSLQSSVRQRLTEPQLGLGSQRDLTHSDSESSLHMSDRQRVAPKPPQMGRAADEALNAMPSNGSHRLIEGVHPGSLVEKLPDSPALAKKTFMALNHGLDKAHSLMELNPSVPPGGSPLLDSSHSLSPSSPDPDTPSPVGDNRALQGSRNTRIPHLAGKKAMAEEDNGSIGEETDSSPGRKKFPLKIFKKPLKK

Tests used:
Orai1-CFP = Orai1-CFP (UniProt Q8BWG9); assay: FRET or BRET; LR73 cells with Orai1-CFP and STIM1-YFP in a 96-well plate, stimulated with apoptotic or live thymocytes; FRET read every 10 s with a microplate reader (FlexStation 3)
FLAG-tagged Orai1 = FLAG-tagged Orai1 (UniProt Q8BWG9); assay: co-IP; LR73 cells transfected with Orai1-FLAG and STIM1; cells incubated 10 min with apoptotic or live thymocytes, apoptotic cell supernatants, PS or PC liposomes, with or without cytochalasin D (1 µM), bafilomycin A (1 µM), Mfge8 D89E or Anxa5; lysis in 1% Triton X-100, 150 mM NaCl, 50 mM Tris pH 7.6; anti-FLAG agarose beads 2 h; immunoblot
[1] = target: Orai1 (endogenous, BMDMs) (mouse (endogenous in BMDMs)) (UniProt Q8BWG9); assay: co-IP; lysates of BMDMs (WT or Mertk-/- mice), with or without apoptotic cells for 10 min; anti-Orai1 antibody and protein A/G agarose beads 2 h; immunoblot for STIM1

Q: How did the binding (Orai1-CFP) turn out when STIM1-YFP (from UniProt P70302 23-685) was run?
A: binds

Q: With “STIM1 (overexpressed in LR73 cells) (from UniProt P70302 23-685)” as the substance, how does the binding (FLAG-tagged Orai1) read?
A: binds

Q: How did the binding [1] turn out when “STIM1 (endogenous, BMDMs) (from UniProt P70302 23-685)” was run?
A: binds
